Measurements: patent US10058525B2, “Application of chlorogenic acid in preparing medicines for treating lupus erythematosus” (SICHUAN JIUZHANG BIOLOGICAL SCIENCE AND TECHNOLOGY CO., LTD., priority 2015, dated 2018)

Test system: lupus erythematosus model mice (renal glomerular capsule wall epithelial cells)
Assay: Electron microscope observation of kidney samples, lupus model mice
Type: in vivo, BALB/c mice
Conditions: positive controls (artesunate, prednisone), 21 days
Protocol: The back of mice was shaved and acutely exposed to Ultraviolet of 2 h/d*3 d, with a distance of 30 cm. After exposure to UV, 2.5 mg/kg of LPS was administrated once by ip, and after 24 h, the model was successfully established; the mice in the normal control group received normal saline via ip. 24 h after injection of LPS (ip), medicines were given to the model mice by intragastric administration. Chlorogenic acid test groups received high, middle, and low doses of medicines, by intragastric administration at a respective dosage of 10 mg/kg*d, 20 mg/kg*d, and 40 mg/kg*d. The positive control group A received 2 mg/kg*d of artesunate by stomach perfusion, while the positive control group B received 1 mg/kg*d of prednisone by stomach perfusion. Mice in the model and normal control group all received 0.4 ml/mouse normal saline by gavage. After 15 days of administration, animals in each group were taken blood by separating eyeballs on days 14, 21, 28, and after cultured in water bath at 37° C. for 1 h, the blood sample was centrifugated at 2000 r/min for 5 min, to draw serum for use. On day 21, after blood collection, animals were sacrificed by dislocation, followed by collection of liver and kidney, and they were placed in fixative solutions of electron microscope and light microscrope, respectively. […]

| Compound | accompanying electron microscope findings in kidney |
| --- | --- |
| C[C@H]1[C@H](OC(=O)CCC(=O)O)O[C@@H]2O[C@@]3(C)CC[C@H]4[C@H](C)CC[C@@H]1[C@@]24OO3 [Artesunate, artesunate, reference compound] | accompanied by thrombus |
| C[C@]12C=CC(=O)C=C1CC[C@@H]1[C@@H]2C(=O)C[C@@]2(C)[C@H]1CC[C@]2(O)C(=O)CO [Prednisone, prednisone, reference compound] | the number of mitochondria increased, accompanied by the loss of organelles |
